Laboratory results reported in ChEMBL document CHEMBL5465560, “Selectivity Literature for EUbOPEN Chemogenomic Library” (2024).

Protein sequences, listed by entry. Tags and fused reporters are not part of them. Lines headed by an entry give the natural chain unless they say otherwise; changes in a name come on top.
UniProt Q99759: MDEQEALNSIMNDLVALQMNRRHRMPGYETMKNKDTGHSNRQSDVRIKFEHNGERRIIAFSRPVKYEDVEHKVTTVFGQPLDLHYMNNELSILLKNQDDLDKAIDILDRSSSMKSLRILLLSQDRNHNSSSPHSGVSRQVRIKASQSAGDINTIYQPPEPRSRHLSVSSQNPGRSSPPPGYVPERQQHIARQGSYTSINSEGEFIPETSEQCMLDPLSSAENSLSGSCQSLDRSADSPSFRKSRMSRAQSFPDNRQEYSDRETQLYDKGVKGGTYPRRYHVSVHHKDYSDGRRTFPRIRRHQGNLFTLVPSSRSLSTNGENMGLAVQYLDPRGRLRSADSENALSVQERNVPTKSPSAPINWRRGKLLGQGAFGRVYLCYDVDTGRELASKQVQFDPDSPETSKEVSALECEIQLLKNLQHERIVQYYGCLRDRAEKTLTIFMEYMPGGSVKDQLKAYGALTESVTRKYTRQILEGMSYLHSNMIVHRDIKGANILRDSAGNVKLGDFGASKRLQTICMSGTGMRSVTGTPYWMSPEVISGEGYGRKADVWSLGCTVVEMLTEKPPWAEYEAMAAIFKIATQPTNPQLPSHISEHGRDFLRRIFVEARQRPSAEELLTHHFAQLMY
UniProt Q13164: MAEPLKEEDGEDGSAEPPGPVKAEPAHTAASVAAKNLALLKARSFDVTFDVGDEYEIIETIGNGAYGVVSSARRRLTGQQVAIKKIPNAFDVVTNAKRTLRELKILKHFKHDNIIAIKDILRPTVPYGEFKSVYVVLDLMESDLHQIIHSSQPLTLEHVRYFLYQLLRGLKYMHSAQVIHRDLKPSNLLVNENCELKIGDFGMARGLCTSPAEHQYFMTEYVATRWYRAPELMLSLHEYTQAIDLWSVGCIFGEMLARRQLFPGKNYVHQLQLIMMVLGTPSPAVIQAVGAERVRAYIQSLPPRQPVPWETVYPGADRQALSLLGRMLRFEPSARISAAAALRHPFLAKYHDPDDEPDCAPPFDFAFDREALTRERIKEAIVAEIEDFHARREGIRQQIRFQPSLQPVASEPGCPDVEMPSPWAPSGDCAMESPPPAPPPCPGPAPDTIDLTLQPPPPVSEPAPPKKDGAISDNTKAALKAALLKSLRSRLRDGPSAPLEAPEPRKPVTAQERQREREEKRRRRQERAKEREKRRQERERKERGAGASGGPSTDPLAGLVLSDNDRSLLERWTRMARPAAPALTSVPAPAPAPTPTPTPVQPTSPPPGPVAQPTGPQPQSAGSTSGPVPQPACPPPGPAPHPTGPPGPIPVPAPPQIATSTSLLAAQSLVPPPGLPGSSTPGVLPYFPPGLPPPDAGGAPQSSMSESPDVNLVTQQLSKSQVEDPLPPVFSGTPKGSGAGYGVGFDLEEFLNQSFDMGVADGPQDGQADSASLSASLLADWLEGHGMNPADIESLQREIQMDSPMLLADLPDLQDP
UniProt Q9NQU5: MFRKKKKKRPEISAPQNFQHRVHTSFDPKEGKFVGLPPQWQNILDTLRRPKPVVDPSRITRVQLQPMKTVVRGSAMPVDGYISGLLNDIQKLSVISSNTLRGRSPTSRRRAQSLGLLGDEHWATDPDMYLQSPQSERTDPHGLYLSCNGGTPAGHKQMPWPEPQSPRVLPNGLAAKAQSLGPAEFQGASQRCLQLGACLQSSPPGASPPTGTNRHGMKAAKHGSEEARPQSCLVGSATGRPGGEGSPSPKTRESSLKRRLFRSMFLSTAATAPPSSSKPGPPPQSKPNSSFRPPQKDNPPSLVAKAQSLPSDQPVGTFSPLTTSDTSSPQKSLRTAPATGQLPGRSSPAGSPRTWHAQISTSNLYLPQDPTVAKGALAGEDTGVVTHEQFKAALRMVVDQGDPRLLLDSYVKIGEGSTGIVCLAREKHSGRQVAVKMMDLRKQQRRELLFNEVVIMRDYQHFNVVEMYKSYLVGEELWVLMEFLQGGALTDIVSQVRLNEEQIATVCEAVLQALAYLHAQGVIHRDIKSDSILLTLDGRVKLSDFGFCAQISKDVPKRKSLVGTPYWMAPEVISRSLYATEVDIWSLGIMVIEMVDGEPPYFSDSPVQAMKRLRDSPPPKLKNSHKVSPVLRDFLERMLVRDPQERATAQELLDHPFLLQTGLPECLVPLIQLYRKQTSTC
UniProt O00444: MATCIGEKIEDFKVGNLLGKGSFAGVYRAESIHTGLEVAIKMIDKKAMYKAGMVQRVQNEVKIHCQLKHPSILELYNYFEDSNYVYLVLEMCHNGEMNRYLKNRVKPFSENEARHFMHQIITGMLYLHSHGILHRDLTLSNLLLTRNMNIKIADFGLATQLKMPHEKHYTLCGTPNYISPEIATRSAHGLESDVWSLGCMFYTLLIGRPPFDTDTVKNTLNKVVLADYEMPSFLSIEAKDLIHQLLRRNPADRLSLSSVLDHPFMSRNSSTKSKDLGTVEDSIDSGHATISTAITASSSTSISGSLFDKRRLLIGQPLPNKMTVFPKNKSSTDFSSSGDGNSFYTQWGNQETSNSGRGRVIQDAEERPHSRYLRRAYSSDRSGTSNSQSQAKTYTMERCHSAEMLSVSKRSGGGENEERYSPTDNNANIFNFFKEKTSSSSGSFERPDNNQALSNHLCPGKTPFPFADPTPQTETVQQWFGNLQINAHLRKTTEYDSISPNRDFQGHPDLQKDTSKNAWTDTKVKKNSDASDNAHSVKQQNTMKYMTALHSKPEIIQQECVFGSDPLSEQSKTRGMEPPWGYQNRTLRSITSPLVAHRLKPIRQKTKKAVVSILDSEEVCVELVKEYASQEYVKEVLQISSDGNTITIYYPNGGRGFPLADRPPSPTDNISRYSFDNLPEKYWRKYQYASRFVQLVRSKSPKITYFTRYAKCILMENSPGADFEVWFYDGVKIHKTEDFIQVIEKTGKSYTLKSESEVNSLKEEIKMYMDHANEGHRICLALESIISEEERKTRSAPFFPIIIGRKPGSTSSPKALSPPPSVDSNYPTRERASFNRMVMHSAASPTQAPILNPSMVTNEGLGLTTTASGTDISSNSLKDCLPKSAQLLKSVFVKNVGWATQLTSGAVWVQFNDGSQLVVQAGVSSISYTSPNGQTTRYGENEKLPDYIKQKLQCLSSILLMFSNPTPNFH
UniProt Q8WU08: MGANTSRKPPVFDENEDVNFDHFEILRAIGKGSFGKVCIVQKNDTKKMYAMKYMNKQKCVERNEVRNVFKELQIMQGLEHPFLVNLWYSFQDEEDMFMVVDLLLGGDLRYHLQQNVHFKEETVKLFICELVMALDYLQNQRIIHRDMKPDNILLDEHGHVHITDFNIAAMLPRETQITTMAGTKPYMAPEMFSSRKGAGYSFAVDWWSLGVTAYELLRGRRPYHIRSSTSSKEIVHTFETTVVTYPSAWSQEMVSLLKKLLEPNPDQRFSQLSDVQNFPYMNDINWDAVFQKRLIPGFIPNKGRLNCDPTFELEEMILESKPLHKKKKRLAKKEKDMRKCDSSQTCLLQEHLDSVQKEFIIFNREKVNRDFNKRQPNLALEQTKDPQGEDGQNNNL
UniProt Q9BX84: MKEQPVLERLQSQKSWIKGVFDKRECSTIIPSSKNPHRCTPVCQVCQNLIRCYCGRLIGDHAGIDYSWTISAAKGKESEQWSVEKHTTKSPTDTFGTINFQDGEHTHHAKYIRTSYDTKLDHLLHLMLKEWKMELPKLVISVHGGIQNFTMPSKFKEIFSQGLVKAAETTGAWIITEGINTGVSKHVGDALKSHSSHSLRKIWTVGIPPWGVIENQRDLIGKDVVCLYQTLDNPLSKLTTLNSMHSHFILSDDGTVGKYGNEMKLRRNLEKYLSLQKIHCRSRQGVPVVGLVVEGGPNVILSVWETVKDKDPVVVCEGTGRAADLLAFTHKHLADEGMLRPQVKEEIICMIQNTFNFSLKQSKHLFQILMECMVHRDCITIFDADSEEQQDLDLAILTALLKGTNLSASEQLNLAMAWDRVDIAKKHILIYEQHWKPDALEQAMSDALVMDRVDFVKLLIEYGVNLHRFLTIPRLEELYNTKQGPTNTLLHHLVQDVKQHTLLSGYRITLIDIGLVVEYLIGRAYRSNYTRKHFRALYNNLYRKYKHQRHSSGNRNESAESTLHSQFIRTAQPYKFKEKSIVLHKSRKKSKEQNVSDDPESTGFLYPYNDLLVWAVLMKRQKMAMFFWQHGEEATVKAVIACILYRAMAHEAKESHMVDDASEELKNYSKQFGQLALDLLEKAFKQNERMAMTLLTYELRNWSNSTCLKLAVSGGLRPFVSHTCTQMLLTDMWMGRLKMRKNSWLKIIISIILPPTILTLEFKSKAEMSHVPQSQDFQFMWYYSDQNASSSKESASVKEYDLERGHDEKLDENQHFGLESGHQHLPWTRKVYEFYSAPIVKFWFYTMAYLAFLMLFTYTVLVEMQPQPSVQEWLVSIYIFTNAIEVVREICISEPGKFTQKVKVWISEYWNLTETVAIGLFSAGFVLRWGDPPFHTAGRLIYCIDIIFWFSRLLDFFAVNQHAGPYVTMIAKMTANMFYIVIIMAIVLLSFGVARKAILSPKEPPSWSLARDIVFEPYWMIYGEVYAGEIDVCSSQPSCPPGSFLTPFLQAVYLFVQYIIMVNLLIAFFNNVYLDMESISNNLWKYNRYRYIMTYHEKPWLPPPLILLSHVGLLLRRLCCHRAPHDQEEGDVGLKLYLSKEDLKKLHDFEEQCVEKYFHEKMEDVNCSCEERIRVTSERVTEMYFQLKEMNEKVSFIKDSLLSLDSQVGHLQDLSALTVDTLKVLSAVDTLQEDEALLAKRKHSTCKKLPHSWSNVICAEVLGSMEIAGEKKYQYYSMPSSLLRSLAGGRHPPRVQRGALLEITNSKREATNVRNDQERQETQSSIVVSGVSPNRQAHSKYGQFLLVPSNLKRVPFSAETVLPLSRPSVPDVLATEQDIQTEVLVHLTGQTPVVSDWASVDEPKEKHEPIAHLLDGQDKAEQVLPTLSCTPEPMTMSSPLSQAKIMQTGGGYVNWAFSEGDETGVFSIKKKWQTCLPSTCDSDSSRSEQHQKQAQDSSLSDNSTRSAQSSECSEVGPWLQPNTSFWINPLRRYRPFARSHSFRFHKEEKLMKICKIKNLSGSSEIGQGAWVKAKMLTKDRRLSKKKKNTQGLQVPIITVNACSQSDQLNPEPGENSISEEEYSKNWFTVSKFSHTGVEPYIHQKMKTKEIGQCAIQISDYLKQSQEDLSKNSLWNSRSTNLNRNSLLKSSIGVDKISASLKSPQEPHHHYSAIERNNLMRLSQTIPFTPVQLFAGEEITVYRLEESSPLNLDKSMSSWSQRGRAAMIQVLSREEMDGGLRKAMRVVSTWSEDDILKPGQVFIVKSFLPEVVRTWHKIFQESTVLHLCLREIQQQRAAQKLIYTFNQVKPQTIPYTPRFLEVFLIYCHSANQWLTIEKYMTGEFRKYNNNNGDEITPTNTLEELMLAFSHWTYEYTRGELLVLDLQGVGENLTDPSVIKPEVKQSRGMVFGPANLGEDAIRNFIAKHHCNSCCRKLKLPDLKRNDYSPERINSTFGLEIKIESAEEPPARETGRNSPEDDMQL
UniProt O75385: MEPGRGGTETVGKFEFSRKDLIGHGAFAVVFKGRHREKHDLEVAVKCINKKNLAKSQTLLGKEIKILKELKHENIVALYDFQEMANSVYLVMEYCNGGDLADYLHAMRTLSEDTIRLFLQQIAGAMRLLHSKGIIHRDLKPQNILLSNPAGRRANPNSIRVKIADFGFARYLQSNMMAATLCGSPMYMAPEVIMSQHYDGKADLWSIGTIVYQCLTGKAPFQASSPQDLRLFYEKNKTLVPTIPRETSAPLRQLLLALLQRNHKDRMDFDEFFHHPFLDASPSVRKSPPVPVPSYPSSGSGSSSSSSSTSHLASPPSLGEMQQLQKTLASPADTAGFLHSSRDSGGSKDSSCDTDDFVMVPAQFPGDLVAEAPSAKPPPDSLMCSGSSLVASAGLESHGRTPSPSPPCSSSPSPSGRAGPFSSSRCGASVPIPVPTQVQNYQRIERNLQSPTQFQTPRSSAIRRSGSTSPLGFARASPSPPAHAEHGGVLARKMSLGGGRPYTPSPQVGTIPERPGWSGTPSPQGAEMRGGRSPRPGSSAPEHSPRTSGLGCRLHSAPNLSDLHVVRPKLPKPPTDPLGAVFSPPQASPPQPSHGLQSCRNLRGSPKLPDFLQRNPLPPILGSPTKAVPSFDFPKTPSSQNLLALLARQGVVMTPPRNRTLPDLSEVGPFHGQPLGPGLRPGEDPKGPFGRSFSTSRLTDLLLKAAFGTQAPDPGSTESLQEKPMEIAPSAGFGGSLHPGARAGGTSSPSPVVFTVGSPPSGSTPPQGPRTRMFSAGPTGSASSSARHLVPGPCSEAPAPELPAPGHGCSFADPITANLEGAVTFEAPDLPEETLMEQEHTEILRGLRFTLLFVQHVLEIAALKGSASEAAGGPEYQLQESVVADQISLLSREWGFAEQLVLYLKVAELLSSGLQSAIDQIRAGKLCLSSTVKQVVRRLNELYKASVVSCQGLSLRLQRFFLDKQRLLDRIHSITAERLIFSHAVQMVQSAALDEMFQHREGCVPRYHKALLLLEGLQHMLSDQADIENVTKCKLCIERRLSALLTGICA

Experiments:
Settings in all cases: at 1 µM
[1] = system: Tyrosine-protein kinase ABL1 (Homo sapiens), P00519 [E255K]; test: (§1) Selectivity interaction (KinomeScan (DiscoverX)) EUB0001581a ABL1
[2] = system: Tyrosine-protein kinase ABL1 (Homo sapiens), P00519 [F317L]; test: as §1
[3] = system: Tyrosine-protein kinase ABL1 (Homo sapiens), P00519 [M351T]; test: as §1
[4] = system: Tyrosine-protein kinase ABL1 (Homo sapiens), P00519 [Q252H]; test: as §1
[5] = system: Tyrosine-protein kinase ABL1 (Homo sapiens), P00519 [T315I]; test: as §1
[6] = system: Tyrosine-protein kinase ABL1 (Homo sapiens), P00519 [Y253F]; test: as §1
[7] = target: Tyrosine-protein kinase ABL1 (Homo sapiens, UniProt P00519); test: as §1
[8] = target: Activin receptor type-2B (Homo sapiens) (UniProt Q13705); test: Selectivity interaction (KinomeScan (DiscoverX)) EUB0001581a ACVR2B
[9] = target: Atypical kinase COQ8B, mitochondrial (Homo sapiens) (UniProt Q96D53); test: Selectivity interaction (KinomeScan (DiscoverX)) EUB0001581a ADCK4
[10] = target: Tyrosine-protein kinase receptor UFO (Homo sapiens) (UniProt P30530); test: Selectivity interaction (KinomeScan (DiscoverX)) EUB0001581a AXL
[11] = target: Calcium/calmodulin-dependent protein kinase type 1D (Homo sapiens) (UniProt Q8IU85); test: Selectivity interaction (KinomeScan (DiscoverX)) EUB0001581a CAMK1D
[12] = target: Calcium/calmodulin-dependent protein kinase kinase 1 (Homo sapiens) (UniProt Q8N5S9); test: Selectivity interaction (KinomeScan (DiscoverX)) EUB0001581a CAMKK1
[13] = target: Calcium/calmodulin-dependent protein kinase kinase 2 (Homo sapiens) (UniProt Q96RR4); test: Selectivity interaction (KinomeScan (DiscoverX)) EUB0001581a CAMKK2
[14] = target: Casein kinase I isoform gamma-1 (Homo sapiens) (UniProt Q9HCP0); test: Selectivity interaction (KinomeScan (DiscoverX)) EUB0001581a CSNK1G1
[15] = target: Ephrin type-A receptor 7 (Homo sapiens) (UniProt Q15375); test: Selectivity interaction (KinomeScan (DiscoverX)) EUB0001581a EPHA7
[16] = target: Serine/threonine-protein kinase/endoribonuclease IRE1 (Homo sapiens) (UniProt O75460); test: Selectivity interaction (KinomeScan (DiscoverX)) EUB0001581a ERN1
[17] = target: Fibroblast growth factor receptor 1 (Homo sapiens, UniProt P11362); test: Selectivity interaction (KinomeScan (DiscoverX)) EUB0001581a FGFR1
[18] = target: Tyrosine-protein kinase Fgr (Homo sapiens) (UniProt P09769); test: Selectivity interaction (KinomeScan (DiscoverX)) EUB0001581a FGR
[19] = target: Serine/threonine-protein kinase mTOR (Homo sapiens, UniProt P42345); test: Selectivity interaction (KinomeScan (DiscoverX)) EUB0001581a MTOR
[20] = target: Homeodomain-interacting protein kinase 4 (Homo sapiens) (UniProt Q8NE63); test: Selectivity interaction (KinomeScan (DiscoverX)) EUB0001581a HIPK4
[21] = target: Insulin-like growth factor 1 receptor (Homo sapiens, UniProt P08069); test: Selectivity interaction (KinomeScan (DiscoverX)) EUB0001581a IGF1R
[22] = target: LIM domain kinase 1 (Homo sapiens) (UniProt P53667); test: Selectivity interaction (KinomeScan (DiscoverX)) EUB0001581a LIMK1
[23] = target: Mitogen-activated protein kinase kinase kinase 3 (Homo sapiens) (UniProt Q99759); test: Selectivity interaction (KinomeScan (DiscoverX)) EUB0001581a MAP3K3
[24] = target: Mitogen-activated protein kinase 7 (Homo sapiens) (UniProt Q13164); test: Selectivity interaction (KinomeScan (DiscoverX)) EUB0001581a MAPK7
[25] = target: MAP kinase-interacting serine/threonine-protein kinase 1 (Homo sapiens) (UniProt Q9BUB5); test: Selectivity interaction (KinomeScan (DiscoverX)) EUB0001581a MKNK1
[26] = target: Myosin light chain kinase family member 4 (Homo sapiens) (UniProt Q86YV6); test: Selectivity interaction (KinomeScan (DiscoverX)) EUB0001581a MYLK4
[27] = target: Serine/threonine-protein kinase Nek7 (Homo sapiens) (UniProt Q8TDX7); test: Selectivity interaction (KinomeScan (DiscoverX)) EUB0001581a NEK7
[28] = target: Serine/threonine-protein kinase OSR1 (Homo sapiens) (UniProt O95747); test: Selectivity interaction (KinomeScan (DiscoverX)) EUB0001581a OXSR1
[29] = target: Serine/threonine-protein kinase PAK 4 (Homo sapiens, UniProt O96013); test: Selectivity interaction (KinomeScan (DiscoverX)) EUB0001581a PAK4
[30] = target: Serine/threonine-protein kinase PAK 6 (Homo sapiens) (UniProt Q9NQU5); test: Selectivity interaction (KinomeScan (DiscoverX)) EUB0001581a PAK6
[31] = target: Phosphatidylinositol 4,5-bisphosphate 3-kinase catalytic subunit delta isoform (Homo sapiens) (UniProt O00329); test: Selectivity interaction (KinomeScan (DiscoverX)) EUB0001581a PIK3CD
[32] = target: Serine/threonine-protein kinase PLK4 (Homo sapiens) (UniProt O00444); test: Selectivity interaction (KinomeScan (DiscoverX)) EUB0001581a PLK4
[33] = target: Protein-tyrosine kinase 2-beta (Homo sapiens) (UniProt Q14289); test: Selectivity interaction (KinomeScan (DiscoverX)) EUB0001581a PTK2B
[34] = target: Serine/threonine-protein kinase 32A (Homo sapiens) (UniProt Q8WU08); test: Selectivity interaction (KinomeScan (DiscoverX)) EUB0001581a STK32A
[35] = target: Serine/threonine-protein kinase TAO1 (Homo sapiens) (UniProt Q7L7X3); test: Selectivity interaction (KinomeScan (DiscoverX)) EUB0001581a TAOK1
[36] = target: Serine/threonine-protein kinase tousled-like 2 (Homo sapiens) (UniProt Q86UE8); test: Selectivity interaction (KinomeScan (DiscoverX)) EUB0001581a TLK2
[37] = target: Serine/threonine-protein kinase TNNI3K (Homo sapiens) (UniProt Q59H18); test: Selectivity interaction (KinomeScan (DiscoverX)) EUB0001581a TNNI3K
[38] = target: Transient receptor potential cation channel subfamily M member 6 (Homo sapiens) (UniProt Q9BX84); test: Selectivity interaction (KinomeScan (DiscoverX)) EUB0001581a TRPM6
[39] = target: Serine/threonine-protein kinase ULK1 (Homo sapiens) (UniProt O75385); test: Selectivity interaction (KinomeScan (DiscoverX)) EUB0001581a ULK1
[40] = target: Tyrosine-protein kinase ZAP-70 (Homo sapiens) (UniProt P43403); test: Selectivity interaction (KinomeScan (DiscoverX)) EUB0001581a ZAP70
[41] = target: RAC-gamma serine/threonine-protein kinase (Homo sapiens, UniProt Q9Y243)

C[C@@H]1C[C@H](N)C[C@H](c2ccncc2NC(=O)c2ccc(F)c(-c3c(F)cccc3F)n2)C1
% of control [1]: 88%
% of control [2]: 100%
% of control [3]: 100%
% of control [4]: 91%
% of control [5]: 100%
% of control [6]: 91%
% of control [7]: 100%
% of control [8]: 90%
% of control [9]: 100%
% of control [10]: 97%
% of control [11]: 100%
% of control [12]: 100%
% of control [13]: 100%
% of control [14]: 84%
% of control [15]: 93%
% of control [16]: 100%
% of control [17]: 97%
% of control [18]: 100%
% of control [19]: 100%
% of control [20]: 84%
% of control [21]: 100%
% of control [22]: 100%
% of control [23]: 100%
% of control [24]: 100%
% of control [25]: 74%
% of control [26]: 90%
% of control [27]: 100%
% of control [28]: 100%
% of control [29]: 100%
% of control [30]: 74%
% of control [31]: 84%
% of control [32]: 100%
% of control [33]: 100%
% of control [34]: 92%
% of control [35]: 38%
% of control [36]: 100%
% of control [37]: 100%
% of control [38]: 100%
% of control [39]: 100%
% of control [40]: 88%
% of control [41]: 94%
